# Values joined by “and” are separate entries in the source; they are usually repeats but may differ in a detail not shown here. Equal entries are not always repeated. This list was built around the results that the source calls inconclusive (neither active nor inactive); the mix of calls is not that of the screen. For some assays here: A potency beside an inconclusive call is a rough fit, not a confirmed value. Active and inactive are the calls of the source. Unless noted, calls follow the shape of the full dose curve.
# Amino acid sequences for entries named in this document (tags omitted).
# UniProt P14416, whole entry, looked up: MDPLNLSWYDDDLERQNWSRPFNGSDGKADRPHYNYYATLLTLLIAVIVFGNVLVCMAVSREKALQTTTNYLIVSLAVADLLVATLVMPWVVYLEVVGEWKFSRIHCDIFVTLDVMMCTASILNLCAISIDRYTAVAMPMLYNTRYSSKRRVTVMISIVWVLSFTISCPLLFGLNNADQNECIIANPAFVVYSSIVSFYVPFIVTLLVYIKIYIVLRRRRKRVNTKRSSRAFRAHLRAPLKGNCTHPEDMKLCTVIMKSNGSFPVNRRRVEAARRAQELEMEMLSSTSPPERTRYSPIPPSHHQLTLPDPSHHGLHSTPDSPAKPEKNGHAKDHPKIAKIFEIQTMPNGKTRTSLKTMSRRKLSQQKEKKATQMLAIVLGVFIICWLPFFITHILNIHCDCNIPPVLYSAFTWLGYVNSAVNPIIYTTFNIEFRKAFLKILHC
# UniProt P28223, whole entry, looked up: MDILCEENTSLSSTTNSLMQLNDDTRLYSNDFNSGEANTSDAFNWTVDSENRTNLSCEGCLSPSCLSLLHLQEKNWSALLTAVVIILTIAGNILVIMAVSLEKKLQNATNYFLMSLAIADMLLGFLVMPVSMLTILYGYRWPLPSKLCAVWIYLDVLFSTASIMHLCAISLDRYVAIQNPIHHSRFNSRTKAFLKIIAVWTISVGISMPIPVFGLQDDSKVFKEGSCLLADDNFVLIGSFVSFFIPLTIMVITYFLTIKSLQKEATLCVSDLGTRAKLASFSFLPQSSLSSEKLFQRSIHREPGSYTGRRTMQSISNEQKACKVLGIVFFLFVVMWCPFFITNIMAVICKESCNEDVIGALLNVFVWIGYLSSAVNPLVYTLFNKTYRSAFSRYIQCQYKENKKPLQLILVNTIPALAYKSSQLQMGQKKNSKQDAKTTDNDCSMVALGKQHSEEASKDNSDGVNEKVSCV
# Columns and labels:
# [1] = Nuclear factor erythroid 2-related factor 2/antioxidant responsive element (Nrf2/ARE) small molecule agonists: luciferase reporter gene qHTS assay in human keratinocytes (AID 1919969); settings: KeratinoSens HaCaT ARE-luciferase, luminescence, 24 h; activity, positive = activation: at 92.4 µM (top of the series); also: nearly all actives have a fitted effect of over 35% in size; also: potency is read from the fitted curve at half-maximal effect; as to activity, positive = activation: % is scaled to controls: 0 for no effect and ±100 for the full control effect
# [2] = p53 small molecule agonists, cell-based qHTS assay with human liver microsomes: qHTS cell viability counter screen (AID 1963579); also: potency is read from the fitted curve at half-maximal effect; nearly all actives have a fitted effect of over 45% in size
# Outline: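 HLM-supplemented (0.5 mg/mL final) and NADPH-supplemented (0.5 mg/mL final) p53RE-bla cultures, 4,000 cells per well, were dosed with compounds in DMSO for 16 h at 37 C; luminescent ATP detection (CellTiter-Glo, 30 min, room temperature) quantified surviving cells.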
# [3] = p53 small molecule agonists, cell-based qHTS assay: qHTS cell viability counter screen (AID 1963581); also: potency is read from the fitted curve at half-maximal effect; nearly all actives have a fitted effect of over 45% in size
# Outline: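 p53RE-bla HCT-116 cells, compounds added 5 h after plating and incubated 16 h at 37 C. Cytotoxicity measured in the same wells as intracellular ATP by CellTiter-Glo luminescence after 30 min at room temperature.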
# [4] = target: Beta-2 adrenergic receptor (Homo sapiens) (UniProt P07550); experiment: Adrenergic beta2 receptor (ADRB2) small molecule agonists, cell-based qHTS assay (AID 1963593); settings: CHO-ADRB2 cells, cAMP HTRF, 30 min; activation: at 92.4 µM (top of the series) unless noted; also: potency is read from the fitted curve at half-maximal effect;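 as to activation: CHO cells stably overexpressing human ADRB2; % is scaled to controls: 0 for no effect and ±100 for the full control effect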
# Outline: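 CHO cells stably over-expressing ADRB2 were plated overnight at 37C, then dosed with compounds plus a stimulation mix containing 100uM IBMX and 25uM Ro-20-1724 for 0.5hr at room temperature. cAMP was measured by HTRF competition, 1hr.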
# [5] = target: D(2) dopamine receptor (Homo sapiens) (UniProt P14416); experiment: Dopamine D2 receptor (DRD2) small molecule antagonists, cell-based qHTS assay (AID 1963595; active = well fitted inhibition curve with a large enough effect in the signal ratio in the repeat runs, with a control signal flat; inconclusive = weak or mixed curves, or effect the other way; the % refers to the signal ratio; also: potency is read from the fitted curve at half-maximal effect; as to activity change, negative = inhibition: % is scaled to controls: 0 for no effect and ±100 for the full control effect); settings: HEK293-DRD2 cAMP HTRF antagonist mode; activity change, negative = inhibition: at 92.4 µM (top of the series) unless noted
# Outline: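 Readout: HTRF cAMP, cAMP-d2 competing with cellular cAMP for anti-cAMP cryptate, read after 1 h. Cells: DRD2-HEK293. Conditions: 0.1 mM Ro20-1724, 12 nM quinpirole, 200 nM NKH477, 30 min RT.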
# [6] = p53 small molecule agonists, cell-based qHTS assay with rat liver microsomes (AID 1963578); settings: HCT-116 p53RE-bla, beta-lactamase ratio, 16 h; activation: at 66 µM (top of the series) unless noted; also: % is scaled to controls: 0 for no effect and ±100 for the full control effect
# Outline: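 Compound in DMSO added to p53RE-bla cells 5 h post-plating; rat microsomes/NADPH 0.5 mg/mL final; 16 h, 37 C; LiveBLAzer 2 h RT.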
# [7] = target: 5-hydroxytryptamine receptor 2A (Homo sapiens) (UniProt P28223); experiment: 5-hydroxytryptamine receptor 2A (HTR2A) small molecule agonists, cell-based qHTS assay (AID 1963587); also: % is scaled to controls: 0 for no effect and ±100 for the full control effect; nearly all actives have a fitted effect of over 30% in size
# Outline: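 CHO cells stably expressing human HTR2A, plated 18 h, loaded with calcium dye 1 h at 37 C. Agonist mode: compounds added and intracellular calcium fluorescence recorded kinetically for 2 min at 1 sec intervals.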
# [8] = cAMP Responsive Elements (CRE) small molecule agonists, cell-based qHTS assay (AID 1963590); settings: CRE-bla HEK293T, beta-lactamase FRET ratio, 3 h; activation: at 92.4 µM (top of the series) unless noted; also: potency is read from the fitted curve at half-maximal effect
# Outline: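 CRE-bla HEK 293T cells, 2,000/well in DMEM with 10% dialyzed FBS and 25 mM HEPES, pre-incubated 18 h at 37 C, then exposed to compound 3 h at 37 C. Beta-lactamase reporter read with LiveBLAzer B/G FRET substrate after 2 h at room temperature.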
# [9] = cAMP Responsive Elements (CRE) small molecule antagonists, cell-based qHTS assay (AID 1963591; active = well fitted inhibition curve with a large enough effect in the signal ratio in the repeat runs, not every such curve was filed as active; inconclusive = weak or mixed curves, or effect the other way; the % refers to the signal ratio; also: potency is read from the fitted curve at half-maximal effect); settings: CRE-bla HEK293T, beta-lactamase FRET ratio; activity change, negative = inhibition: at 92.4 µM (top of the series) unless noted
# Outline: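 CRE-bla HEK293T cells plated 18 h, then given compound plus NKH477 at 0.25 uM final for 3 h at 37C. Beta-lactamase reporter read with LiveBLAzer B/G FRET substrate after 2 h at room temperature.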
# [10] = target: Beta-2 adrenergic receptor (Homo sapiens) (UniProt P07550); experiment: Adrenergic beta2 receptor (ADRB2) small molecule antagonists, cell-based qHTS assay (AID 1963592); settings: CHO-ADRB2 cells, isoproterenol-stimulated cAMP HTRF ratio, 0.5 h; activity change, negative = inhibition: at 92.4 µM (top of the series) unless noted; also: % is scaled to controls: 0 for no effect and ±100 for the full control effect; nearly all actives have a fitted effect of over 50% in size
# Outline: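 Cells (CHO, stable ADRB2 overexpression) incubated 18-20hr at 37C; compounds added from DMSO; agonist mix (1nM isoproterenol, 100uM IBMX, 25uM Ro-20-1724) added; 0.5hr RT; d2-cAMP and anti-cAMP-cryptate added; 1hr RT; 665/615 nm read.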
# [11] = p53 small molecule agonists, cell-based qHTS assay with rat liver microsomes: qHTS cell viability counter screen (AID 1963580); also: potency is read from the fitted curve at half-maximal effect; nearly all actives have a fitted effect of over 45% in size
# Outline: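 p53RE-bla HCT-116 cells were exposed 16 h at 37 C to compounds with rat liver microsomes (0.5 mg/mL) and NADPH (0.5 mg/mL). Viability was measured in the same wells as ATP content by CellTiter-Glo luminescence.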
# [12] = p53 small molecule agonists, cell-based qHTS assay (AID 1963582; active = well fitted activation curve with a large enough effect in the signal ratio in the repeat runs, not every such curve was filed as active; inconclusive = weak or mixed curves; the % refers to the signal ratio; also: potency is read from the fitted curve at half-maximal effect); settings: HCT-116 p53RE-bla reporter, beta-lactamase FRET ratio, 16 h; activation: at 66 µM (top of the series) unless noted
# Outline: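 p53RE-bla reporter cells, compounds added in DMSO after 5 h plating, incubated 16 h at 37 C. Beta-lactamase read via 2 h room-temperature LiveBLAzer B/G FRET substrate, fluorescence intensity.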
smiles,measurement,setting,value
CC(=O)Oc1cc(C(C)C)c(OCCN(C)C)cc1C,Potency,[1],inactive
same,Potency,[2],"inconclusive: 5.61 µM [rising, full curve]"
same,Potency,[3],"inconclusive: 3.54 µM [rising, full curve]"
same,activation,[4],inconclusive: -33% [at 42.5 µM]
same,Potency,[5],inactive
Cc1c(C(=O)O)c(O)cc2c1C(=O)c1c(O)c([C@@H]3O[C@H](CO)[C@@H](O)[C@H](O)[C@H]3O)c(O)c(O)c1C2=O,Potency,[1],inactive
same,Potency,[6],inactive
same,Potency,[7],inactive
same,Potency,[8],inactive
same,Potency,[9],inconclusive: 29.9 µM [fluorescent]
same,"activity change, negative = inhibition",[10],inconclusive: -0.454% [at 42.5 µM]
same,Potency,[5],"inconclusive: 66.9 µM [cytotoxic] and inconclusive: 48.6 µM [cytotoxic, partial curve] and inconclusive: 29.8 µM [cytotoxic]"
COc1ccc(/C=C/C(=O)c2ccc(OC)cc2OC)cc1,Potency,[1],active: 29.8 µM
same,Potency,[2],"inconclusive: 0.89 µM [rising, full curve]"
same,Potency,[11],"inconclusive: 3.97 µM [rising, full curve]"
same,Potency,[8],inconclusive: 29.8 µM
same,Potency,[9],"inconclusive: 33.5 µM [fluorescent, partial curve, poor fit]"
same,activation,[4],inconclusive: 22.7% [at 42.5 µM]
C=CC(=O)OCC(C)OCC(C)OCC(C)OC(=O)C=C (stereo unspecified),Potency,[1],active: 24.3 µM
same,Potency,[2],"inconclusive: 45.8 µM [cytotoxic, single point]"
same,Potency,[11],"inconclusive: 40.8 µM [rising, partial curve, poor fit]"
same,Potency,[12],"inconclusive: 28.9 µM [fluorescent, partial curve, poor fit]"
same,Potency,[8],"inconclusive: 30.6 µM [rising, partial curve]"
same,Potency,[9],"inconclusive: 27.3 µM [fluorescent, full curve]"
same,Potency,[10],inactive
same,Potency,[4],"inconclusive: 77 µM [activator, single point]"

# Not a retest: entries from further up.
smiles,measurement,setting,value
CC(=O)Oc1cc(C(C)C)c(OCCN(C)C)cc1C,Potency,[2],"inconclusive: 5.61 µM [rising, full curve]"
same,Potency,[3],"inconclusive: 3.54 µM [rising, full curve]"

# — PubChem BioAssay (Tox21)
